This note sets out measurements from paper doi:10.1101/386631.

Protein sequences, listed by entry. Tags and fused reporters are not part of them. Residues count along the entry.
UniProt P29323, residues 19-1055: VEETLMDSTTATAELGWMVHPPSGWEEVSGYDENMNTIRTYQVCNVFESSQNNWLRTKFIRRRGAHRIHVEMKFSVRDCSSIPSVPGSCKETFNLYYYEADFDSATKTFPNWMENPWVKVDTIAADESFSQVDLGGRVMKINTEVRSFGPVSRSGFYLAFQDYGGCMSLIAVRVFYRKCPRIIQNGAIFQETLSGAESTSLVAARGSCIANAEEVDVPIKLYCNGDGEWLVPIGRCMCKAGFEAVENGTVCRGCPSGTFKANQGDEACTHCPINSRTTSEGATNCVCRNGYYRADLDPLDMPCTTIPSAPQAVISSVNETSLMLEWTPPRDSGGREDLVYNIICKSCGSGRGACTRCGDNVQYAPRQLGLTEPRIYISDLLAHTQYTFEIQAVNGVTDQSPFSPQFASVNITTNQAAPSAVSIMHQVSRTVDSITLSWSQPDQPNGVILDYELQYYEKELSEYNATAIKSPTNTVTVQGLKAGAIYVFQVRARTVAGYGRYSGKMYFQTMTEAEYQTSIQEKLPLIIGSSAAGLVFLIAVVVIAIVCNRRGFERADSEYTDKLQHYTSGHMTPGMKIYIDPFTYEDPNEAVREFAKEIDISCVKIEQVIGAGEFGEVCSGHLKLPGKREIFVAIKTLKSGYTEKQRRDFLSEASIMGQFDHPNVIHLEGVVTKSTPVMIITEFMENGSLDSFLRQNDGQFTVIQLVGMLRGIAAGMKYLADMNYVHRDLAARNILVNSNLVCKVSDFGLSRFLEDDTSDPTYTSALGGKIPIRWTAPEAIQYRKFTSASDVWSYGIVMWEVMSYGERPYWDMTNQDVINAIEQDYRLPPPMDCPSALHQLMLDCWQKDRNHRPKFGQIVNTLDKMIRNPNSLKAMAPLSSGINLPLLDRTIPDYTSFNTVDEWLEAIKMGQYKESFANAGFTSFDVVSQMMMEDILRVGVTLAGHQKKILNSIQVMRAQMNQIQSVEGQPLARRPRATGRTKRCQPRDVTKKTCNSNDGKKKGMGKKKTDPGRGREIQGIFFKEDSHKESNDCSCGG
UniProt Q9H3S7: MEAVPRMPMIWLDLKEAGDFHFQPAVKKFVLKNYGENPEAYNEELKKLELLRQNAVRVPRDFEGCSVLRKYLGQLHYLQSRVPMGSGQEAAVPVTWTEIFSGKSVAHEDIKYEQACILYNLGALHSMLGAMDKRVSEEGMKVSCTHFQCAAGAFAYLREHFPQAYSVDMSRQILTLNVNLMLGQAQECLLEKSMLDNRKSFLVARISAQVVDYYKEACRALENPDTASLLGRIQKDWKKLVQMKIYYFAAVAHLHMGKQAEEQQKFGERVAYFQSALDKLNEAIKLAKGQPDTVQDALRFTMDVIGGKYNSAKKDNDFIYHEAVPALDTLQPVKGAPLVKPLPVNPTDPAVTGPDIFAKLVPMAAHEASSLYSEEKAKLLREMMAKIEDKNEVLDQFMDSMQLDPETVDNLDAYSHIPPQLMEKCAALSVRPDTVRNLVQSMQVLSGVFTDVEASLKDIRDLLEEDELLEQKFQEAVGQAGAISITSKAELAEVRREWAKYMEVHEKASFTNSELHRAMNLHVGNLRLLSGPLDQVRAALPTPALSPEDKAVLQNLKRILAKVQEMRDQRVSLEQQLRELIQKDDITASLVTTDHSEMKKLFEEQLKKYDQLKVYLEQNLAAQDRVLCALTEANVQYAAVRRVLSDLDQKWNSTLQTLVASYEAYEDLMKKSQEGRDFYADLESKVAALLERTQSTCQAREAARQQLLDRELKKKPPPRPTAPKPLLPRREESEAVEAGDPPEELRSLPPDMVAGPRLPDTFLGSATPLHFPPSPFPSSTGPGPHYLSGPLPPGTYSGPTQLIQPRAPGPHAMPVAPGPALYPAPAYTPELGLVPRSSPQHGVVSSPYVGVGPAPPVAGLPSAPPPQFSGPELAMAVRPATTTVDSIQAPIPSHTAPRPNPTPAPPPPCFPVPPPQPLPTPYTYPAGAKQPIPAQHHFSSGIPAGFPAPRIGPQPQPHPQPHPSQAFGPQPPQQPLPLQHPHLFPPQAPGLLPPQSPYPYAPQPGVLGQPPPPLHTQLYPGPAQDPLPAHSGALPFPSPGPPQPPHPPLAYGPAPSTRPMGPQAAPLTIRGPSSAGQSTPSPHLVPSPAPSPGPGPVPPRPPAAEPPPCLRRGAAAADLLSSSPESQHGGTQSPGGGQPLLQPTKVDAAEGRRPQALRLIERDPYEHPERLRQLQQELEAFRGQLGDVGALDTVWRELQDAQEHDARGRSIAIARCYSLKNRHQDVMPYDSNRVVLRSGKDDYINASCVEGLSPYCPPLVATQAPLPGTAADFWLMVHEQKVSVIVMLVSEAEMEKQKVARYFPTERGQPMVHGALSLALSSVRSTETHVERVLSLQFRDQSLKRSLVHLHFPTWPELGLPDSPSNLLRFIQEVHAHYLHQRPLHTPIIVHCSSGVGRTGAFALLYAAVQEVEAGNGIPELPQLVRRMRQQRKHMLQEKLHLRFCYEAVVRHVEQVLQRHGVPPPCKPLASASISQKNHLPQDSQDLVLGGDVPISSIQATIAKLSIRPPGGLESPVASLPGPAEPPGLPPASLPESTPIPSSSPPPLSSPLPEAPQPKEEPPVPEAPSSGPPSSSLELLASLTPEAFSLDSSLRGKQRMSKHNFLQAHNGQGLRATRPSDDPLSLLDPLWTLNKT

The assay addresses EphB2-BirA*-FLAG (UniProt P29323). Put plainly: co-IP.

No constants are given. Whether binding was seen depends on the method and setting. Binding seen in cells or lysates may run through a third protein. Some binding calls cover weakened binding; strength is not graded here.

For the substance HD-PTP-HA (from UniProt Q9H3S7 1-1636), the binding result is “binds”.
